Results deposited as PubChem BioAssay AID743121 (NCATS, 2013).

Test: 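Knock-downs that sensitise breast cancer cells to camptothecin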 (primary screen)
System: MDA-MB-231 cells, a human breast cancer line
Knock-down reagent: single siRNA against human genes, 20 nM siRNA (0.8 pmol per well)
Time to read-out: 120 h (drug added 48 h after transfection, read 72 h later)
Treatment: camptothecin 20 nM (about EC30) for 72 h; vehicle 0.1% DMSO in parallel plates
Read-out: 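CellTiter-Glo ATP signal, scaled to control siRNA as percent viability; sensitisation given as log2 of untreated divided by camptothecin-treated viability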
Scale: log2 vehicle/camptothecin viability: higher = stronger sensitisation to camptothecin; viability with camptothecin: higher = more viable cells
Units: viability with camptothecin in % of control
Active means: 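Each gene scored by redundant siRNA activity (RSA) over its individual siRNA ratios; a gene is called active at p < 0.001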
The whole screen tested about 26,000 reagents; shown is an unselected part. 167 of all reagents (0.63%) count as active. 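Calls are per gene from RSA p-values that are not deposited; an individual active-marked siRNA can sensitise only weakly.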 Entries without a mark were called inactive. Reagents against one gene are numbered here. Not all columns of the deposit are shown.

How did the screen score POLD1 #1?
log2 vehicle/camptothecin viability: -0.0318; viability with camptothecin: 21.7

For POLD1 #2, what does the deposit list?
log2 vehicle/camptothecin viability: 0.124; viability with camptothecin: 31.9

How did the screen score POLD1 #3?
log2 vehicle/camptothecin viability: -0.361; viability with camptothecin: 77.8

How did the screen score POLD1 #4?
log2 vehicle/camptothecin viability: 0.113; viability with camptothecin: 75.3

For SLC25A31 #1, what was measured?
log2 vehicle/camptothecin viability: -0.127; viability with camptothecin: 77.4

With SLC25A31 #2, what does the deposit list?
log2 vehicle/camptothecin viability: 0.14; viability with camptothecin: 85.7

Which result is listed for SLC25A31 #3?
log2 vehicle/camptothecin viability: -0.126; viability with camptothecin: 79

How did the screen score SLC25A31 #4?
log2 vehicle/camptothecin viability: 0.188; viability with camptothecin: 75.3

What is on record for KMT2A #1?
log2 vehicle/camptothecin viability: 0.335; viability with camptothecin: 74.5

What did the screen give for KMT2A #2?
log2 vehicle/camptothecin viability: -0.171; viability with camptothecin: 78.6

With KMT2A #3, what does the deposit list?
log2 vehicle/camptothecin viability: -0.191; viability with camptothecin: 45.5

What is on record for SNX1 #1?
log2 vehicle/camptothecin viability: -0.0275; viability with camptothecin: 77.4

For SNX1 #2, what was measured?
log2 vehicle/camptothecin viability: -0.227; viability with camptothecin: 104

What did the screen give for SNX1 #3?
log2 vehicle/camptothecin viability: 0.23; viability with camptothecin: 69.4

For SNX1 #4, how do the results read?
log2 vehicle/camptothecin viability: 0.116; viability with camptothecin: 72.3

Just “log2 vehicle/camptothecin viability” (2 entries from above):
SNX1 #1 = -0.0275
SNX1 #2 = -0.227
